# No constants are given. Whether binding was seen depends on the method and setting. Some binding calls cover weakened binding; strength is not graded here.
# Protein sequences, listed by entry. Tags and fused reporters are not part of them. Lines headed by an entry give the natural chain unless they say otherwise; changes in a name come on top. Chains listed by the source or under a name are the forms on record and can include a tag or linker. Residues count along the entry.
# truncated mGlu2 in which the 26 C-terminal amino acids were deleted (HA-ST-mGlu2-Δ846) (P31421, residues 19-846): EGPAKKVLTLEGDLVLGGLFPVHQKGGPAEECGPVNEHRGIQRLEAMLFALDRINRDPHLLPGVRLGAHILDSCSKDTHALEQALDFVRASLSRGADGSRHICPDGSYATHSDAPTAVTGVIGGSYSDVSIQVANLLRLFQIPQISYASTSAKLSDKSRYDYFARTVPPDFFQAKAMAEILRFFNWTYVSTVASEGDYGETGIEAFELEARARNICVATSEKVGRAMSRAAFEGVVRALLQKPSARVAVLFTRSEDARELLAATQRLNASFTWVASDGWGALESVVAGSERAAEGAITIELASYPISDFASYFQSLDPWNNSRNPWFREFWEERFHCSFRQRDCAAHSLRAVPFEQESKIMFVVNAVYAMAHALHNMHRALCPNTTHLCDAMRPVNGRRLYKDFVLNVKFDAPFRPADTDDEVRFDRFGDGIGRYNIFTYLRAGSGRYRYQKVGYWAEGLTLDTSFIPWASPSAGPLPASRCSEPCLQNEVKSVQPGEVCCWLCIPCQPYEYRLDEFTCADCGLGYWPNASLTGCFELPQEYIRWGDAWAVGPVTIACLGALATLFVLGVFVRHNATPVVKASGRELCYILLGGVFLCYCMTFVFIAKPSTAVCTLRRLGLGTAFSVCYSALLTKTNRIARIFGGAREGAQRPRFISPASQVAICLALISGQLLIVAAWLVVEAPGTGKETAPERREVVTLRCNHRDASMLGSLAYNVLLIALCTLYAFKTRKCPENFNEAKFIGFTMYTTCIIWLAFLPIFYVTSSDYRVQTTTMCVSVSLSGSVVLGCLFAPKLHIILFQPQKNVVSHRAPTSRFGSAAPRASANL
# ST-mGlu2-V699C (P31421, form named): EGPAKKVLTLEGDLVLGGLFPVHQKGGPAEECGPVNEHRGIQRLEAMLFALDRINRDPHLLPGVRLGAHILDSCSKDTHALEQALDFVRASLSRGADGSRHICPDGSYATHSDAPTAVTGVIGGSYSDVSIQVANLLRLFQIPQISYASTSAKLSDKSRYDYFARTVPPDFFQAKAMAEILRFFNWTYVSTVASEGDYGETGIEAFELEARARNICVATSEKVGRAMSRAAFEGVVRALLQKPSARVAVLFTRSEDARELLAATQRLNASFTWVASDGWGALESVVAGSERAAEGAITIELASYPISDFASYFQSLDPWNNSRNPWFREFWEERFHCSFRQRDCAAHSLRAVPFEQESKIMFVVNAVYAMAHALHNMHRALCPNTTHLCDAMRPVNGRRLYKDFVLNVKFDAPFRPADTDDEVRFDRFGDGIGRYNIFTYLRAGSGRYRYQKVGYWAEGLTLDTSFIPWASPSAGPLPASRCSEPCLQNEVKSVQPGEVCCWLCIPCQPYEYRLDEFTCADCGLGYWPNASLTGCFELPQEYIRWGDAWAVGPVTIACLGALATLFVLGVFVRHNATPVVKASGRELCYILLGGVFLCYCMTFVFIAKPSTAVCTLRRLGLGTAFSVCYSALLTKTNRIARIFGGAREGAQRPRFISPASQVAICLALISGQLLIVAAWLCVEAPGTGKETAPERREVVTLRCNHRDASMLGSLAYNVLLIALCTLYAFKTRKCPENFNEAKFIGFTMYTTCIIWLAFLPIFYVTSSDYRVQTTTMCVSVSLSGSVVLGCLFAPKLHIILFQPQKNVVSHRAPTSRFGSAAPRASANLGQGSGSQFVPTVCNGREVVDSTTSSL
# Experiments:
# ST-mGlu2-V699C (rat) = ST-mGlu2-V699C (rat) (UniProt P31421); assay: two-photon scanning number and brightness (sN&B) fluctuation microscopy; data not shown; neurons, ST-mGlu2-V699C cross-linked with CuP
# [1] = molecular target: truncated mGlu2 in which the 26 C-terminal amino acids were deleted (HA-ST-mGlu2-Δ846) (rat) (UniProt P31421); assay: two-photon scanning number and brightness (sN&B) fluctuation microscopy; live cultured rat hippocampal neurons, SNAP-tag labelled with Alexa488, with agonist and PAM (10 nM LY379268 + 3 μM BINA) during labelling and imaging; numbers for 90-600 subunits/Veff
# [2] = molecular target: truncated mGlu2 in which the 26 C-terminal amino acids were deleted (HA-ST-mGlu2-Δ846) (rat) (UniProt P31421); assay: two-photon scanning number and brightness (sN&B) fluctuation microscopy; live cultured rat hippocampal neurons, cell-surface SNAP-tagged receptor labelled with Alexa488, imaging buffer pH 7.3, no ligand (basal); numbers for expression of 90-600 subunits/Veff; brightness normalised to monomeric Alexa488
binding (ST-mGlu2-V699C (rat)),binding [1],binding [2],Substance
binds,,,ST-mGlu2-V699C (from UniProt P31421 19-872) (receptor)
,binds,binds,truncated mGlu2 in which the 26 C-terminal amino acids were deleted (HA-ST-mGlu2-Δ846) (from UniProt P31421 19-846) (receptor)

# From publication PMC6039492
